Data: publication PMC6374739
No constants are given. Whether binding was seen depends on the method and setting. Binding seen in cells or lysates may run through a third protein. Some entries that bind do so weakly or less than the wild type. Where a sequence is shown, tags or fusion partners need not be part of it. Each block holds one binder with its values, some of them ahead of it.

Experiments:
[1] = target: T1, mCherry-UVR8-GFP (wild-type UV … LOCUS 8, from the pFRET-NcCg-DEST vector) (Arabidopsis thaliana), Q9FN03; experiment: FRET or BRET; acceptor photobleaching (50 s, 100% 552 nm), percent increase of GFP fluorescence, tobacco leaf cells; mCherry-UVR8-GFP chains (pFRET-NcCg-DEST), intra- and intermolecular FRET both contribute; leaves with or without 3 umol m^-2 s^-1 broadband UV-B for 1 hour; conditions: remark: other sources report otherwise
T1 chain: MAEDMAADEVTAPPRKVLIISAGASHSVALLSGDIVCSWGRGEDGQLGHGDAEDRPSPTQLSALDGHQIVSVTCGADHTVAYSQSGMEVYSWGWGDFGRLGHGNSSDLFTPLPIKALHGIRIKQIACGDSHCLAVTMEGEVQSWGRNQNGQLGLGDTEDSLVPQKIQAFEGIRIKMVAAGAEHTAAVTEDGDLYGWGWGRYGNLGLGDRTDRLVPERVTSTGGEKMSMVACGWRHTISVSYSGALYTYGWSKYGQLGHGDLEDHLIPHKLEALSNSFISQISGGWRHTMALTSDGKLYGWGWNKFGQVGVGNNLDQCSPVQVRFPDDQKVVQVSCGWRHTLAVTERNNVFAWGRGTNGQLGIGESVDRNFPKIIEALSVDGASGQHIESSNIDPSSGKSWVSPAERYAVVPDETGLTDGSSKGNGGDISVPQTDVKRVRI

[2] = target: T1, mCherry-UVR8-GFP (wild-type UV … LOCUS …); experiment: FRET or BRET; sensitised emission, ratio mCherry (488)/GFP (488), confocal microscopy of tobacco leaf cells; one chain with mCherry at the N- and GFP at the C-terminus (pFRET-NcCg-DEST), so intra- and intermolecular FRET both contribute; leaves with or without 3 umol m^-2 s^-1 broadband UV-B for 1 hour; conditions: remark: other sources report otherwise
[3] = target: mCherry-UVR8^W285F-GFP (from the pFRET-NcCg-DEST vector) (Arabidopsis thaliana) (UniProt Q9FN03); experiment: FRET or BRET; acceptor photobleaching (50 s, 100% 552 nm), percent increase of GFP fluorescence, tobacco leaf cells; mCherry-UVR8-GFP chains (pFRET-NcCg-DEST), intra- and intermolecular FRET both contribute; leaves with or without 3 umol m^-2 s^-1 broadband UV-B for 1 hour
[4] = target: mCherry-UVR8^W285F-GFP (from the pFRET-NcCg-DEST vector) (Arabidopsis thaliana) (UniProt Q9FN03); experiment: FRET or BRET; sensitised emission, ratio mCherry (488)/GFP (488), confocal microscopy of tobacco leaf cells; one chain with mCherry at the N- and GFP at the C-terminus (pFRET-NcCg-DEST), so intra- and intermolecular FRET both contribute; leaves with or without 3 umol m^-2 s^-1 broadband UV-B for 1 hour
[5] = target: T2, mCherry-UVR8-mCherry/GFP-UVR8-GFP (wild-type UVR8, two differently tagged copies from the pFRET-2in1-DEST vector) (Arabidopsis thaliana), Q9FN03; experiment: FRET or BRET; sensitised emission, ratio mCherry (488)/GFP (488), tobacco leaf cells; GFP-UVR8-GFP and mCherry-UVR8-mCherry co-expressed 1:1 (pFRET-2in1-DEST), only intermolecular FRET; leaves with or without 3 umol m^-2 s^-1 broadband UV-B for 1 hour; conditions: remark: other sources report otherwise
T2 chain: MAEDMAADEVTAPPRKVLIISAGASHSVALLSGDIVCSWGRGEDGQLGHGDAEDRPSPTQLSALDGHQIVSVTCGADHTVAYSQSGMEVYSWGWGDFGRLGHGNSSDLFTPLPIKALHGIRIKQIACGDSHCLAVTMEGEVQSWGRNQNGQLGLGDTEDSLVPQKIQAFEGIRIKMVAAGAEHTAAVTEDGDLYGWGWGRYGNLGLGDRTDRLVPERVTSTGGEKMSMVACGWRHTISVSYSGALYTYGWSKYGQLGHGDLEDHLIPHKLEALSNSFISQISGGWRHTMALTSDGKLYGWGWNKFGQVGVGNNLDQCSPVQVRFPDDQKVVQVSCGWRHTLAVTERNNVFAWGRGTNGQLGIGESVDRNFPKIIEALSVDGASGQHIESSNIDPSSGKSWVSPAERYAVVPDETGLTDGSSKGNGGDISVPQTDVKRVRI

[6] = target: T2, mCherry-UVR8-mCherry/GFP-UVR8-GFP …; experiment: FRET or BRET; acceptor photobleaching (50 s, 100% 552 nm), percent increase of GFP fluorescence, tobacco leaf cells; GFP-UVR8-GFP and mCherry-UVR8-mCherry co-expressed 1:1 (pFRET-2in1-DEST), only intermolecular FRET; leaves with or without 3 umol m^-2 s^-1 broadband UV-B for 1 hour; conditions: remark: other sources report otherwise
[7] = target: mCherry-UVR8^W285F-mCherry/GFP-UVR8^W285F-GFP (two differently tagged copies from the pFRET-2in1-DEST vector) (Arabidopsis thaliana) (UniProt Q9FN03); experiment: FRET or BRET; sensitised emission, ratio mCherry (488)/GFP (488), tobacco leaf cells; GFP-UVR8-GFP and mCherry-UVR8-mCherry co-expressed 1:1 (pFRET-2in1-DEST), only intermolecular FRET; leaves with or without 3 umol m^-2 s^-1 broadband UV-B for 1 hour
[8] = target: mCherry-UVR8^W285F-mCherry/GFP-UVR8^W285F-GFP (two differently tagged copies from the pFRET-2in1-DEST vector) (Arabidopsis thaliana) (UniProt Q9FN03); experiment: FRET or BRET; acceptor photobleaching (50 s, 100% 552 nm), percent increase of GFP fluorescence, tobacco leaf cells; GFP-UVR8-GFP and mCherry-UVR8-mCherry co-expressed 1:1 (pFRET-2in1-DEST), only intermolecular FRET; leaves with or without 3 umol m^-2 s^-1 broadband UV-B for 1 hour

binding [1]: binds
B1: mCherry-UVR8-GFP (wild-type UV … LOCUS 8, from the pFRET-NcCg-DEST vector), Q9FN03 1-440 (protein)
chain: MAEDMAADEVTAPPRKVLIISAGASHSVALLSGDIVCSWGRGEDGQLGHGDAEDRPSPTQLSALDGHQIVSVTCGADHTVAYSQSGMEVYSWGWGDFGRLGHGNSSDLFTPLPIKALHGIRIKQIACGDSHCLAVTMEGEVQSWGRNQNGQLGLGDTEDSLVPQKIQAFEGIRIKMVAAGAEHTAAVTEDGDLYGWGWGRYGNLGLGDRTDRLVPERVTSTGGEKMSMVACGWRHTISVSYSGALYTYGWSKYGQLGHGDLEDHLIPHKLEALSNSFISQISGGWRHTMALTSDGKLYGWGWNKFGQVGVGNNLDQCSPVQVRFPDDQKVVQVSCGWRHTLAVTERNNVFAWGRGTNGQLGIGESVDRNFPKIIEALSVDGASGQHIESSNIDPSSGKSWVSPAERYAVVPDETGLTDGSSKGNGGDISVPQTDVKRVRI
binding [2]: binds

binding [3]: binds
B2: mCherry-UVR8^W285F-GFP (from the pFRET-NcCg-DEST vector) (protein, UniProt Q9FN03 1-440)
chain: MAEDMAADEVTAPPRKVLIISAGASHSVALLSGDIVCSWGRGEDGQLGHGDAEDRPSPTQLSALDGHQIVSVTCGADHTVAYSQSGMEVYSWGWGDFGRLGHGNSSDLFTPLPIKALHGIRIKQIACGDSHCLAVTMEGEVQSWGRNQNGQLGLGDTEDSLVPQKIQAFEGIRIKMVAAGAEHTAAVTEDGDLYGWGWGRYGNLGLGDRTDRLVPERVTSTGGEKMSMVACGWRHTISVSYSGALYTYGWSKYGQLGHGDLEDHLIPHKLEALSNSFISQISGGFRHTMALTSDGKLYGWGWNKFGQVGVGNNLDQCSPVQVRFPDDQKVVQVSCGWRHTLAVTERNNVFAWGRGTNGQLGIGESVDRNFPKIIEALSVDGASGQHIESSNIDPSSGKSWVSPAERYAVVPDETGLTDGSSKGNGGDISVPQTDVKRVRI
binding [4]: binds

binding [6]: binds
B3: mCherry-UVR8-mCherry/GFP-UVR8-GFP (wild-type UVR8, two differently tagged copies from the pFRET-2in1-DEST vector), Q9FN03 1-440 (protein)
chain: MAEDMAADEVTAPPRKVLIISAGASHSVALLSGDIVCSWGRGEDGQLGHGDAEDRPSPTQLSALDGHQIVSVTCGADHTVAYSQSGMEVYSWGWGDFGRLGHGNSSDLFTPLPIKALHGIRIKQIACGDSHCLAVTMEGEVQSWGRNQNGQLGLGDTEDSLVPQKIQAFEGIRIKMVAAGAEHTAAVTEDGDLYGWGWGRYGNLGLGDRTDRLVPERVTSTGGEKMSMVACGWRHTISVSYSGALYTYGWSKYGQLGHGDLEDHLIPHKLEALSNSFISQISGGWRHTMALTSDGKLYGWGWNKFGQVGVGNNLDQCSPVQVRFPDDQKVVQVSCGWRHTLAVTERNNVFAWGRGTNGQLGIGESVDRNFPKIIEALSVDGASGQHIESSNIDPSSGKSWVSPAERYAVVPDETGLTDGSSKGNGGDISVPQTDVKRVRI
binding [5]: binds

binding [8]: binds
B4: mCherry-UVR8^W285F-mCherry/GFP-UVR8^W285F-GFP (two differently tagged copies from the pFRET-2in1-DEST vector) (protein, UniProt Q9FN03 1-440)
chain: MAEDMAADEVTAPPRKVLIISAGASHSVALLSGDIVCSWGRGEDGQLGHGDAEDRPSPTQLSALDGHQIVSVTCGADHTVAYSQSGMEVYSWGWGDFGRLGHGNSSDLFTPLPIKALHGIRIKQIACGDSHCLAVTMEGEVQSWGRNQNGQLGLGDTEDSLVPQKIQAFEGIRIKMVAAGAEHTAAVTEDGDLYGWGWGRYGNLGLGDRTDRLVPERVTSTGGEKMSMVACGWRHTISVSYSGALYTYGWSKYGQLGHGDLEDHLIPHKLEALSNSFISQISGGFRHTMALTSDGKLYGWGWNKFGQVGVGNNLDQCSPVQVRFPDDQKVVQVSCGWRHTLAVTERNNVFAWGRGTNGQLGIGESVDRNFPKIIEALSVDGASGQHIESSNIDPSSGKSWVSPAERYAVVPDETGLTDGSSKGNGGDISVPQTDVKRVRI
binding [7]: binds
